Laboratory results: PubChem BioAssay AID651640 (Broad Institute, 2012)
Among all 350,000 compounds or so, about 6,000 (1.7%) were called active. Inconclusive means that the source gave no clear call. Such entries were picked first, then a sample of the others. Rule as the data show it: active = CPE inhibition above about 20% (passing the limit was not always enough); inconclusive = no clear call, values can overlap the other calls; tested in BHK-21 cells.

Test: protection of cells from dengue 2 killing – plate reader, single concentration, primary screen (AID 651640);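 also: 0% = median of neutral control wells and 100% = median of positive control wells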
Settings: DENV2-infected cells, cytopathic effect rescue, at 9.99 µM, active compounds read high

SMILES | CPE inhibition
COC(=O)C1=C(C)N(C)C(=NCC2CC2)NC1c1cccc(F)c1 (centres undefined) | inconclusive: 22.5%
O=C(Nc1ccc(F)cc1)N1C[C@@H]2[C@H](c3ccccc31)[C@@H](CO)N2C(=O)Cc1ccccn1 | inconclusive: 25.9%
O=C(COC(=O)c1c[nH]c2ccccc12)NCc1ccccc1 | inconclusive: 26.4%
COc1ccc(SCCN2CC[C@@H](C)CCC2=O)cc1 | inconclusive: 72.4%
CNC[C@H]1Oc2ccc(NC(=O)Nc3ccc(F)cc3)cc2C(=O)N([C@H](C)CO)C[C@H]1C | inconclusive: 38%
COc1ccccc1NC(=O)N1C[C@@H]2N[C@H](C1)C2c1ccc(-c2ccccc2)cc1 (some centres undefined) | inconclusive: 23.8%
CS(=O)(=O)N1CCCCN2[C@H](C1)[C@H](c1ccc(C#Cc3ccccn3)cc1)[C@@H]2CO | inactive: -0.667%
COCCNC(=O)C[C@@H]1CC[C@@H]2[C@H](COC[C@H](O)CN2C(=O)c2cc(Cl)cc(Cl)c2)O1 | inconclusive: 29%
C[C@@H]1CN([C@@H](C)CO)C(=O)CCCn2nncc2CO[C@@H]1CN(C)S(=O)(=O)c1ccccc1C#N | inconclusive: 33.8%
CC(=O)N/N=C(\C)CC(=O)NC(C)(C)C | inactive: -3.23%
COc1ccc(N(CC(=O)Nc2cccc3ccccc23)S(C)(=O)=O)cc1 | inconclusive: 25.7%
Cc1cc(=O)[nH]c(SCC(=O)NC2CCCCC2)n1 | inactive: -4.41%
Cc1cccc(C(C)(C)C)c1OCCN1CCCC1 | inconclusive: 37.9%
C[C@H](CO)N1C[C@H](C)[C@@H](CN(C)CC2CC2)Oc2c(NS(=O)(=O)c3cn(C)cn3)cccc2C1=O | inconclusive: 29.1%
O=C(c1cccnc1)N1CC2(C1)[C@@H](c1ccccc1)[C@@H](CO)N2CC1CC1 | active: 20.3%
O=C(C[C@H]1CC[C@H](NC(=O)CN2CCOCC2)[C@@H](CO)O1)NC1CCCCC1 | inactive: 11.7%
CCOC(=O)C1CCCN(C(=O)c2cc(C)oc2C)CC1 (centres undefined) | inconclusive: 50.2%
COCC(=O)N[C@@H]1CC[C@H](CC(=O)N2CCCCC2)O[C@H]1CO | inconclusive: 20.4%
CC(C)C[C@H](NC(=O)Nc1ccc2c(c1)OCCO2)C(=O)O | inconclusive: 25.9%
CCC(=O)Nc1ccc2c(c1)C(=O)N(C)[C@H]1CC[C@@H](CC(=O)NCC3CC3)O[C@H]1CO2 | inconclusive: 37%
O=C(c1ccccc1)C(O)(Cc1ccccc1)c1ccccc1 (centres undefined) | active: 35.9%
C#CCOc1c(Cl)cc(/C=C2/C(=O)ON=C2C)cc1OC | inconclusive: 24.9%
COCC(=O)Nc1ccc2c(c1)C(=O)N(C)C[C@H](OC)[C@@H](C)CN(C(=O)c1cnccn1)[C@@H](C)CO2 | inactive: -0.759%
Cn1c(=O)[nH]c(=O)c2c1[nH]c(=S)n2Cc1ccc(Cl)cc1 | inactive: -5.72%
COc1ccc(NC(=O)CN(C)CC(=O)N2CC(=O)Nc3ccccc32)cc1 | inconclusive: 36.6%

SMILES | CPE inhibition
C[C@@H]1CN([C@H](C)CO)C(=O)c2cc(-c3cccc(F)c3)cnc2O[C@H]1CN(C)C | inactive: 2.76%
COCC(=O)N(C)C[C@@H]1Oc2cc(C#C[C@@H](C)O)ccc2S(=O)(=O)N([C@@H](C)CO)C[C@@H]1C | inconclusive: 25.3%
C[C@H](CO)N1C[C@H](C)[C@@H](CN(C)C(=O)Nc2ccc(C(F)(F)F)cc2)OCCCC[C@H](C)Oc2ccc(NC(=O)C3CCCCC3)cc2C1=O | active: 86.9%
CCOC(=O)[C@]12CCC=C1N(CCC1=CCCCC1)C(=O)[C@H](CC(=O)NCCCCc1ccccc1)C2 | active: 85.1%
O=S1(=O)CCO[C@H]2Cc3ccccc3[C@H]2N1Cc1cccc(Cl)c1 | inconclusive: 70.1%
CCOC(=O)C1C(=O)OC2(CCCCC2)C1C(=O)OCC (centres undefined) | inconclusive: 22%
CC(C)NC(=O)Nc1ccc2c(c1)CC(=O)N([C@H](C)CO)C[C@H](C)[C@H](CN(C)S(=O)(=O)c1ccc(F)cc1)O2 | inactive: 0.278%
COc1ccc(NS(=O)(=O)c2cccc(C(=O)NCCCN3CCCC3=O)c2)cc1 | inconclusive: 42.2%
CC(C)(C)c1ccc(C(=O)C2CCCN(C(=O)CCn3cncn3)C2)cc1 (centres undefined) | inconclusive: 21.9%
N#Cc1ccc(-c2ccc([C@H]3[C@H](CO)N4CCCCN(S(=O)(=O)c5ccccc5)C[C@@H]34)cc2)cc1 | active: 34.3%
Cc1noc(C)c1NC(=O)N(C)C[C@@H]1Oc2ccc(NS(=O)(=O)c3c(C)noc3C)cc2CC(=O)N([C@@H](C)CO)C[C@H]1C | inconclusive: 54.4%
CCCCn1c(N)c(N(CCC(C)C)C(=O)c2ccc3ccccc3c2)c(=O)[nH]c1=O | inconclusive: 63.3%
O=C(O)C[C@H]1C[C@@H]2c3cc(NC(=O)Cc4ccncc4)ccc3O[C@@H]2[C@@H](CO)O1 | active: 89.8%
Cc1ccc(S(=O)(=O)Nc2ccc3c(c2)C(=O)N([C@H](C)CO)C[C@@H](C)[C@H](CN(C)S(=O)(=O)c2ccc(F)cc2)OCCCC[C@@H](C)O3)cc1 | inactive: 0.0705%
COc1cc(SC)ccc1C(=O)OC(C)C(=O)NC1CCCC1 (centres undefined) | inconclusive: 29%
O=C(C[C@H]1C=C[C@@H](NS(=O)(=O)c2ccccc2)[C@@H](CO)O1)NCc1ccncn1 | inactive: -0.744%
CCc1n[nH]c(=S)n1/N=C/c1cccc2ccccc12 | inconclusive: 23.1%
CCCNC(=O)C1(C)CCN(C(=O)Cc2ccc(OC)c(OC)c2)C1 (centres undefined) | inactive: 3.21%
Cc1ccc(NS(=O)(=O)c2cc3c4c(cccc4c2)C(=O)NC3=O)cc1 | inconclusive: 38.6%
Cc1ccc(NC(=O)COC(=O)Cc2c[nH]c3ccccc23)cc1 | inconclusive: 23.4%
CCC(=O)NC(NC(=S)Nc1ccccc1Br)C(Cl)(Cl)Cl (centres undefined) | inactive: -2.98%
COCC(=O)N1CC2(CN(C(C)=O)C2)c2c([nH]c3cc(OC)ccc23)[C@@H]1CO | active: 20.1%
Cc1ccc(S(=O)(=O)CCC(=O)NCc2ccccc2)cc1 | active: 22.3%
O=C(C1CC(=O)N(c2ccc(F)cc2)C1)N1CCCCCC1 (centres undefined) | inconclusive: 36.3%
Cc1noc(C)c1NC(=O)N(C)C[C@@H]1Oc2ccc(NC(=O)CCC(F)(F)F)cc2CC(=O)N([C@H](C)CO)C[C@H]1C | inactive: -0.242%

Part of the list above, tab-delimited.
SMILES	CPE inhibition
Cc1noc(C)c1NC(=O)N(C)C[C@@H]1Oc2ccc(NS(=O)(=O)c3c(C)noc3C)cc2CC(=O)N([C@@H](C)CO)C[C@H]1C	inconclusive: 54.4%
CCCCn1c(N)c(N(CCC(C)C)C(=O)c2ccc3ccccc3c2)c(=O)[nH]c1=O	inconclusive: 63.3%
O=C(O)C[C@H]1C[C@@H]2c3cc(NC(=O)Cc4ccncc4)ccc3O[C@@H]2[C@@H](CO)O1	active: 89.8%
Cc1ccc(S(=O)(=O)Nc2ccc3c(c2)C(=O)N([C@H](C)CO)C[C@@H](C)[C@H](CN(C)S(=O)(=O)c2ccc(F)cc2)OCCCC[C@@H](C)O3)cc1	inactive: 0.0705%
COc1cc(SC)ccc1C(=O)OC(C)C(=O)NC1CCCC1 (centres undefined)	inconclusive: 29%
O=C(C[C@H]1C=C[C@@H](NS(=O)(=O)c2ccccc2)[C@@H](CO)O1)NCc1ccncn1	inactive: -0.744%
CCc1n[nH]c(=S)n1/N=C/c1cccc2ccccc12	inconclusive: 23.1%
CCCNC(=O)C1(C)CCN(C(=O)Cc2ccc(OC)c(OC)c2)C1 (centres undefined)	inactive: 3.21%
Cc1ccc(NS(=O)(=O)c2cc3c4c(cccc4c2)C(=O)NC3=O)cc1	inconclusive: 38.6%
Cc1ccc(NC(=O)COC(=O)Cc2c[nH]c3ccccc23)cc1	inconclusive: 23.4%
CCC(=O)NC(NC(=S)Nc1ccccc1Br)C(Cl)(Cl)Cl (centres undefined)	inactive: -2.98%
COCC(=O)N1CC2(CN(C(C)=O)C2)c2c([nH]c3cc(OC)ccc23)[C@@H]1CO	active: 20.1%
Cc1ccc(S(=O)(=O)CCC(=O)NCc2ccccc2)cc1	active: 22.3%
O=C(C1CC(=O)N(c2ccc(F)cc2)C1)N1CCCCCC1 (centres undefined)	inconclusive: 36.3%
Cc1noc(C)c1NC(=O)N(C)C[C@@H]1Oc2ccc(NC(=O)CCC(F)(F)F)cc2CC(=O)N([C@H](C)CO)C[C@H]1C	inactive: -0.242%

The list goes on.

SMILES | CPE inhibition
C[C@@H]1CN([C@@H](C)CO)C(=O)c2cc(NC(=O)Nc3ccc(F)cc3)ccc2O[C@@H](C)CCCCO[C@@H]1CN(C)C(=O)CCCN(C)C | inconclusive: 53.5%
CCc1nc2ccc(C(=O)NCCN3CCOCC3)cn2c1N(CCC(C)C)CCN(C)C | inconclusive: 43.1%
CO[C@@H]1CC[C@H]2CCN(C)C(=O)C[C@@H](c3ccccc3)CN(C)C(=O)c3cccc(C#N)c3OC[C@@H]1O2 | inactive: -0.711%
COc1ccc(NC(=O)N(C)C[C@@H]2Oc3ccc(NS(=O)(=O)c4ccc(OC)cc4)cc3C(=O)N([C@H](C)CO)C[C@H]2C)cc1 | inconclusive: 29.2%
CSc1nnnn1-c1ccc(Cl)cc1 | inactive: 5.45%
CC(C)NC(=O)Nc1cccc2c1O[C@H](CN(C)C(=O)Nc1ccccc1)[C@H](C)CN([C@H](C)CO)C2=O | active: 42.4%
CCOC(=O)/C(C(=Nc1ccccc1)Nc1ccccc1)=C(\C)O | inconclusive: 20.9%
C[C@@H]1CNC(=O)c2c(C(=O)Nc3cccc(Cl)c3)ncn21 | inconclusive: 21.9%
N#C[C@@H]1[C@@H](c2ccc(C#Cc3cccnc3)cc2)[C@@H](CO)N1C(=O)NC1CCCCC1 | inconclusive: 63.9%
COc1ccc(S(=O)(=O)N(C)C[C@@H]2Oc3c(NC(=O)CCCCCC(=O)Nc4ccccc4N)cccc3C(=O)N([C@H](C)CO)C[C@H]2C)cc1 | active: 32.1%
Cc1nc(CNS(=O)(=O)c2ccc(Br)cc2)cs1 | inconclusive: 29.1%
COc1ccc([C@H]2N[C@]3(CCCN(CC4CCCCC4)C3=O)[C@H]3C(=O)N(C)C(=O)[C@@H]23)cc1 | inconclusive: 22.4%
Cc1ccc(C(=O)N/C(=C/c2ccc(C(C)C)cc2)C(=O)NCCCN2CCOCC2)cc1 | inconclusive: 26.9%
N#C[C@@H]1[C@H](c2ccccc2)[C@@H](CO)N1C(=O)Cc1ccccc1 | inactive: 10.5%
O=C(Nc1cccc(F)c1)N1CCCCN2[C@H](C1)[C@@H](c1ccc(C#Cc3cccnc3)cc1)[C@@H]2CO | inconclusive: 38.6%
O=C(NCC[C@H]1CC[C@H](NS(=O)(=O)c2cccc(F)c2)[C@@H](CO)O1)C1CC1 | inconclusive: 39.1%
Clc1ccc(CSc2nnc(-c3ccccn3)n2Cc2cccs2)cc1Cl | inconclusive: 25.6%
COCC(=O)N1[C@H](C#N)[C@H](c2ccccc2-c2cccc(C)c2)[C@H]1CO | inconclusive: 20.9%
CN(c1ccccc1)S(=O)(=O)c1cccc(NS(=O)(=O)c2cccc(C(=O)O)c2)c1 | inconclusive: 43.5%
CC[C@H](C)C(=O)O[C@H]1CCC=C2C=C[C@H](C)[C@H](CC[C@@H]3C[C@@H](O)CC(=O)O3)[C@H]21 | inconclusive: 45.2%
O=C(Cn1cnc2c(nnn2Cc2ccccc2)c1=O)NCc1ccco1 | inconclusive: 37.7%
COC(=O)C1CCN(S(=O)(=O)CCNC(=O)c2cccc(OC)c2)CC1 | inconclusive: 22.8%
C/C(=N\NC(=O)Cc1ccc(Cl)cc1)c1cccnc1 | inconclusive: 40.9%
COc1cc(COCC(O)CN2CCc3ccccc3C2)cc(OC)c1OC (centres undefined) | inactive: -6.3%
